As a reminder, the Kd is the concentration at which binding is half-saturated. The low end stands for a tighter complex, the high end for a looser complex.

Amino acid sequences for entries named in this document (tags omitted). Residues count along the entry.
UniProt P27695, whole entry D210A: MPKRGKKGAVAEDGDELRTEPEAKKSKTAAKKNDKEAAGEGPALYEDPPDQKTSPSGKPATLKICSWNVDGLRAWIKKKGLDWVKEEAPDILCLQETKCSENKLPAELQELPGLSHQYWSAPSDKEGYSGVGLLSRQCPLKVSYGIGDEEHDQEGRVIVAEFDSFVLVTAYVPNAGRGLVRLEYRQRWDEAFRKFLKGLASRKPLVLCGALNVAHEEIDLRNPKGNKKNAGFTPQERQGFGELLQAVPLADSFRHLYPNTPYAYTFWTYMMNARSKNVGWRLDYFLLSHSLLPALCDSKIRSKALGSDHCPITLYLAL
UniProt P27695, 62-318 D210A: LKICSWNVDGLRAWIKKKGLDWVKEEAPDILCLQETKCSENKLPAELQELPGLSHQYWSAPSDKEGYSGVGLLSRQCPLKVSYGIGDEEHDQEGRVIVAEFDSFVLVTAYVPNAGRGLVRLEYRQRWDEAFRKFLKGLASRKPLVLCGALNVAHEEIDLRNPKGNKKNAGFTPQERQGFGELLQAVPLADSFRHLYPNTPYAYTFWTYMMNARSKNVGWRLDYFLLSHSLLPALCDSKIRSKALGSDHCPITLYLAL

For some assays here: Construct, isoform or probe ends are uncertain for at least one entry. For some assays here: The direction of at least one scale is not stated here.

Experiment in all cases: fluorescence anisotropy
(In general: Polarisation of emitted light reports the rotation of a fluorescent probe.)

For one series, the target named is APE1 (WT) (Homo sapiens) (UniProt P27695). The note with it: 0 Mg2+, EDTA, 50 mM K+; letters put together from the description.
Series [1] addresses D210A-APE1 (Homo sapiens) (UniProt P27695).
For series [2], the target named is Δ61-D210A-APE1 D210A,del1-61 (Homo sapiens) (UniProt P27695). The note with it: 10 mM Mg2+, 50 mM K+; residues 62-318.

For the sequence “CGGGGCGGGCCGGGGGCGGGGT (double strand) [dsDNA without F (VEGF)]”, the Kd with APE1 (WT) (Homo sapiens) was above 5 µM.
Turning to CGGGGCGGGCCGGGGGCGGGGT [VEGF-4], the Kd in series [1] (5 uM pyridostatin, 10 mM Mg2+, 50 mM K+) was 0.7 µM; in series [1] (50 mM Li+ (no G4 folding)), above 5 µM; in series [2], above 5 µM. Moreover, the binding signal (fold higher Kd than without PEG) in series [1] (20% PEG-200) was found to be 2.
